Hit rate of the full screen: of about 340,000 compounds, about 170 (0.05%) were called active. Inconclusive results, whose numbers are uncertain, are shown with a selection of clear calls. Calls come from the whole dose curve; as a rule, active = well fitted inhibition curve with a large enough effect in the signal ratio, with a control signal flat (not every such curve was filed as active); inconclusive = small, poorly fitted or top-dose-only effect, or effect the other way, or a change in a side signal; inactive = flat fitted curve, though single readings scatter; the % refers to the signal ratio. Where the call is inconclusive, the potency comes from a doubtful curve fit.
Test: qHTS Assay to Find Inhibitors of Chronic Active B-Cell Receptor Signaling;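 for activity change, negative = inhibition: plate controls were basal doxycycline-induced cells for no effect and cells given 10 µM MG132 for full effect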
Conditions: ABC-DLBCL IkBa-CBG/CBR reporter, luminescence ratio (green luciferase fused to IkBa over red control in TMD8 lymphoma cells), 4 h; activity change, negative = inhibition: at 46.1 µM (top of the series)
How it was run: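 Cell line TMD8 (human ABC DLBCL), stably expressing tet-inducible CBG68-IkBa fusion and CBR; IMDM/0.5% FBS; cpd up to 46 uM; dox induction, 4 h, 37C/5% CO2; dual luminescence; green/red ratio; MG132 control.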
Potency is the fitted concentration of half-maximal effect.

Structure (SMILES)	activity change, negative = inhibition	Potency
O=C1COc2ccc(C(=O)COC(=O)c3cc(S(=O)(=O)NCc4ccccc4)ccc3O)cc2N1	inconclusive: 8.13%	–
NC(=O)CSc1nc2sc3c(c2c2ncnn12)CCCC3	inconclusive: 1.24%	–
Cn1c(Cc2nc(-c3cnccn3)no2)nnc1SCC(=O)Nc1ccccc1	–	inconclusive: 0.562 µM [falling, full curve, poor fit]
Cc1sc2c(c1C)CN(C(C)(C)C)CN2C(=O)c1ccccc1	–	inconclusive: 23.1 µM [falling, single point]
Cc1cc(NC(=O)CCCS(=O)(=O)c2nc(-c3cccs3)cc(C(F)(F)F)n2)no1	–	inconclusive: 5.01 µM [falling, single point]
Cc1ccc(C(=O)N2CCCC(C(=O)c3cc(F)ccc3F)C2)s1 (centres undefined)	inconclusive: 0.372%	–
Cc1cccc(C)c1NC(=O)CSc1nc(C2CC2)nc2ccccc12	inactive	–
COc1ccc(N=Nc2c(N)n[nH]c2N)cc1	inconclusive: -17.6%	–
Cn1cccc1/C=C(/C#N)c1ccc(F)cc1	inconclusive: 3.24%	–
Cc1ccc2oc(-c3ccco3)cc(=O)c2c1	inactive	–
CC(NCc1ccc2c(c1)OCO2)C(=O)NC1CCCc2ccccc21 (centres undefined)	inconclusive: -7.67%	–
Fc1ccc(-c2csc(-c3cccnc3)n2)cc1F	inconclusive: -0.72%	–
Cc1cccc(/C=N/N(CCO)C2=NS(=O)(=O)c3ccccc32)c1	inactive	–
O=C(/C=C/NNC(=O)c1cccc(Br)c1)c1cccc(Br)c1	–	inconclusive: 18.4 µM [falling, partial curve]
CN(C)/C=C1\N=C(c2ccc(Cl)cc2Cl)OC1=O	–	inconclusive: 4.61 µM [rising, partial curve, poor fit]
CC(=O)CSc1nnc(-c2ccc3c(c2)OCO3)o1	–	inconclusive: 23.1 µM [falling, single point]
COc1ccc(/C=C/C(=O)NC(=S)NNC(=O)Cc2cccs2)cc1	inactive	–
Nc1c(Br)cc(Br)cc1CNC1CCC(O)CC1 (centres undefined)	–	inconclusive: 14.1 µM [falling, partial curve]
O=C(Nc1ccccc1N1CCCC1)c1cccc(-c2cc3ccccc3oc2=O)c1	inactive	–
Cc1occc1C(=O)N(Cc1nc(-c2ccccc2)no1)C(C)C	inactive	–
COc1ccccc1Nc1nc(Cl)nc(Nc2ccccc2OC)n1	–	inconclusive: 35.5 µM [falling, partial curve, poor fit]

Full records as entered above.
`Cc1cccc(C)c1NC(=O)CSc1nc(C2CC2)nc2ccccc12` is listed as activity change, negative = inhibition: inactive
`Cc1cc(NC(=O)CCCS(=O)(=O)c2nc(-c3cccs3)cc(C(F)(F)F)n2)no1` is listed as Potency: inconclusive: 5.01 µM [falling, single point]
`Cc1occc1C(=O)N(Cc1nc(-c2ccccc2)no1)C(C)C` is listed as activity change, negative = inhibition: inactive

Next part:

Structure (SMILES)	activity change, negative = inhibition	Potency
Cc1ccc(OCc2cc(C(=O)NC3CCc4ccccc43)no2)cn1 (centres undefined)	–	inconclusive: 10 µM [falling, partial curve]
CCCCn1c(N)c(N(CC(C)C)C(=O)Cn2c(=O)oc3ccccc32)c(=O)[nH]c1=O	inactive	–
CC1CCN(C(=O)c2[nH]cnc2C(=O)N[C@@H](C)c2ccccc2)CC1	inconclusive: -9.15%	–
COc1ccc(Cl)cc1C(=O)Nc1ccc(NC(=O)C(C)C)cc1	inconclusive: 1.42%	–
CCc1ccc(S(=O)(=O)Nc2cc(SCC(=O)O)c(O)c3ccccc23)cc1	–	inconclusive: 15.8 µM [falling, single point]
CC(=O)Nc1ccc(NC(=O)CSc2nccn2Cc2ccccc2)cc1	inactive	–
S=C(NCc1ccccc1)Nc1ccc2cn[nH]c2c1	inactive	–
Cc1occc1-c1nnc(SCC(=O)NCCc2ccccc2)o1	inconclusive: 3.43%	–
CN(C)CCN(C(=O)c1cccs1)c1nc2cc3c(cc2s1)OCCO3	inconclusive: -27.2%	–
CCC[n+]1c2ccccc2cc2ccccc21	inactive	–
Cc1nc2c(Br)c3nc(C(F)(F)F)[nH]c3c(Br)c2[nH]1	inconclusive: -5.27%	–
CCOC(=O)c1ccc(N2CCN(c3cc(C)ccc3C)CC2)c(NC(=O)Nc2ccc(Cl)cc2)c1	inconclusive: 13.2%	–
CCOc1ccc2[nH]c(C(=O)N/N=C/c3cc(OC)c(OC)c(OC)c3)cc2c1	–	inconclusive: 3.98 µM [falling, single point]
CC1=NN(c2ccc(C(=O)O)cc2)C(=O)/C1=C/c1ccc(-c2ccccc2F)o1	inconclusive: 465%	–
Cc1ccc(C(=O)NC(=S)NCc2cccnc2)cc1C	inactive	–
O=C(CNC(=O)c1cccs1)N/N=C/c1ccccc1[N+](=O)[O-]	inconclusive: -19.7%	–
COCCCNC(=O)CC(=O)N/N=C\c1ccc(SC)cc1	–	inconclusive: 35.5 µM [falling, single point]
CC(Cn1cncn1)C(=O)N1CCN(S(=O)(=O)c2ccc(Cl)cc2)CC1 (centres undefined)	inconclusive: 8.71%	–
CCC(COC(C)=O)Nc1nc2c([nH]1)c(=O)n(C)c(=O)n2C (centres undefined)	inconclusive: 3.33%	–
Cc1cccc(NC(=O)c2ccccc2OCC(=O)N2CCCC2)c1C	inconclusive: 11.3%	–
COc1ccc(S(=O)(=O)N2CCOCC2)cc1NC(=O)COC(=O)C1CCC1	inactive	–

Structure (SMILES)	activity change, negative = inhibition	Potency
CCC(CC)C(=O)c1c[nH]c(C(=O)OC)c1	inconclusive: 16.2%	–
Cc1ccc(OCCCNCCO)c(Br)c1	inactive	–
COc1ccc(C(=O)Nc2ccc(NC(=O)c3cc(OC)c(OC)c(OC)c3)cn2)cc1	inactive	–
COc1cc(SC)ccc1C(=O)NCCc1c[nH]c2ccccc12	inconclusive: -3.14%	–
O=C(NCc1ccco1)c1sc2cc(Cl)ccc2c1Cl	inconclusive: 2.08%	–
FC(F)(F)c1cccnc1Oc1ccc(C2=NCCS2)cc1	inconclusive: 0.748%	–
COCCNS(=O)(=O)c1cc(OC)c(C)cc1C	inconclusive: 0.717%	–
Cc1ccc2cc(COC(=O)c3ccco3)c(=O)[nH]c2c1	inconclusive: 10.7%	–
CC(C)Cn1c(N)c(C(=O)COC(=O)c2ccc3c(c2)OCCO3)c(=O)n(C)c1=O	inconclusive: 2.03%	–
O=C(O)c1cccc(CSc2ncccn2)c1	–	inconclusive: 29.1 µM [falling, single point]
O=C(COC(=O)c1cc(=O)[nH]c(=O)[nH]1)Nc1cccc(S(=O)(=O)N2CCOCC2)c1	inconclusive: 2.62%	–
O=C(O)CCn1cc(/C=C2/NC(=S)N(c3ccccc3)C2=O)c(-c2ccccc2)n1	inconclusive: 11.1%	–
CN(C)c1ccc(S(=O)(=O)NCC(=O)NCCC2=CCCCC2)cc1[N+](=O)[O-]	inconclusive: 0.411%	–
NC(=O)CSc1nc(C23CC4CC(CC(C4)C2)C3)nc2ccccc12	inactive	–
COc1ccc(-n2nc(C(=O)NCC(=O)N3CCN(c4ccccc4F)CC3)c3ccccc3c2=O)cc1	inactive	–
COc1ccc2[nH]c(C(=O)O)c(CCNC(=O)/C=C/c3ccc(O)c(OC)c3)c2c1	inactive	–
COc1cc(C(=O)Oc2cccc(/C=N/NC(=O)c3cc(C)[nH]n3)c2)cc(OC)c1OC	–	inconclusive: 15.8 µM [falling, partial curve]
CCOC(=O)c1sc2nc(N3CCOCC3)c3c(c2c1N)CC(C)(C)N(C)C3	inconclusive: -3.38%	–
CC(C)c1ccc(/C=C2\SC(N3CCCC3)=NC2=O)cc1	inconclusive: -2.13%	–
Cc1cccc(C)c1OC(=O)CSc1nnc(-c2ccccc2O)o1	–	inconclusive: 4.11 µM [rising, full curve, poor fit]
Cc1ccc(CN2CCN(Cc3cn[nH]c3-c3cccc(F)c3)CC2CCO)o1 (centres undefined)	inactive	–

Structure (SMILES)	activity change, negative = inhibition	Potency
Cc1cccc(NC(=O)CN2CCN(C(=O)c3cnn(Cc4ccccc4)c3)CC2)c1C	inconclusive: 3.88%	–
COc1ccc(C(=O)c2cn[nH]c2-c2cc(C)ccc2O)cc1	inconclusive: 0%	–
CCOC(=O)c1ccc(N2NC(=O)/C(=C/c3ccc(OC(=O)c4ccco4)c(OC)c3)C2=O)cc1	inconclusive: -1.03%	–
O=C1c2oc3ccc(Cl)cc3c(=O)c2C(c2ccccn2)N1CCCN1CCOCC1 (centres undefined)	inconclusive: 8.22%	–
CCN(Cc1nc2cc(Cl)ccc2c(=O)[nH]1)C(=O)c1cccc(OCc2c(C)noc2C)c1	inconclusive: -19.1%	–
COC(=O)c1cc(NC(=O)CN(c2ccc(OC)cc2)S(=O)(=O)c2ccc(F)cc2)ccc1Cl	inconclusive: 16.6%	–
CCN(CC)S(=O)(=O)c1ccc(C)c(NC(=O)CSc2ncc(C(F)(F)F)cc2Cl)c1	inconclusive: -1.56%	–
Nc1ccc(C(=O)N/N=C/c2cccc(Oc3ccccc3)c2)cc1	inconclusive: -29.4%	–
CC(=O)N1CCN=C1SCc1cccc(C)c1	inconclusive: -0.536%	–
CS(=O)(=O)c1ccc(Cl)c(NC(=O)c2cccc(-n3cnnn3)c2)c1	inconclusive: 6.58%	–
COc1ccccc1NC(=O)Nc1cc(F)ccc1F	inconclusive: 8.79%	–
Cc1[nH]c2ccccc2c1C(=O)C(=O)N(C)C1CCCCC1	inconclusive: 4.38%	–
CC(C)Cn1c(N)c(C(=O)COC(=O)c2ccc([N+](=O)[O-])o2)c(=O)n(C)c1=O	inactive	–
O=C(/C=C/Nc1ccccc1O)c1ccco1	–	inconclusive: 35.5 µM [falling, partial curve]
O=C(NCc1ccccc1)C1CCCN1C(=O)Nc1ccccc1[N+](=O)[O-] (centres undefined)	inconclusive: 2.38%	–
C[C@H](NC(=O)NCc1ccc(F)cc1)C(=O)O	inactive	–
Cc1cc(C)c2c(N)c(-c3nnc(SCc4ccc(Cl)cc4)n3C)sc2n1	inactive	–
CCCN(CCC)c1nc(-c2ccccn2)nc2ccccc12	inconclusive: -15.9%	–
Cc1nc2cc(NC(=O)NCc3ccco3)ccc2o1	–	inconclusive: 18.4 µM [falling, partial curve, poor fit]
CC(=O)NCCC(=O)N1CCCC(C(=O)c2ccc3c4c(cccc24)CC3)C1 (centres undefined)	inactive	–
CN(CC(=O)Nc1c(Cl)cccc1Cl)C(=O)c1ccc(-n2cncn2)c([N+](=O)[O-])c1	inconclusive: -5.72%	–

Source: PubChem BioAssay AID493014 (National Center for Advancing Translational Sciences (NCATS), 2011)
